No constants are given. Whether binding was seen depends on the method and setting. Binding seen in cells or lysates may run through a third protein. Binding can be weak; no strength is given.
Biological target: Med14 (Rgr1/Med14), subunit of the Mediator complex (S. cerevisiae (endogenous in yeast)) (UniProt P19263)
Assay: co-IP; WCEs of yeast strains expressing LexA-Med6p derivatives, DEAE column fractionation to enrich Pol II holoenzyme; immunopurified with beads-coupled anti-Med14 antibody; western with anti-LexA and anti-Med14

The chains behind the UniProt entries cited, without tags or fusion partners. Where a name states a change or a piece, a line headed by the entry shows the natural chain unless it says otherwise.
UniProt P19263: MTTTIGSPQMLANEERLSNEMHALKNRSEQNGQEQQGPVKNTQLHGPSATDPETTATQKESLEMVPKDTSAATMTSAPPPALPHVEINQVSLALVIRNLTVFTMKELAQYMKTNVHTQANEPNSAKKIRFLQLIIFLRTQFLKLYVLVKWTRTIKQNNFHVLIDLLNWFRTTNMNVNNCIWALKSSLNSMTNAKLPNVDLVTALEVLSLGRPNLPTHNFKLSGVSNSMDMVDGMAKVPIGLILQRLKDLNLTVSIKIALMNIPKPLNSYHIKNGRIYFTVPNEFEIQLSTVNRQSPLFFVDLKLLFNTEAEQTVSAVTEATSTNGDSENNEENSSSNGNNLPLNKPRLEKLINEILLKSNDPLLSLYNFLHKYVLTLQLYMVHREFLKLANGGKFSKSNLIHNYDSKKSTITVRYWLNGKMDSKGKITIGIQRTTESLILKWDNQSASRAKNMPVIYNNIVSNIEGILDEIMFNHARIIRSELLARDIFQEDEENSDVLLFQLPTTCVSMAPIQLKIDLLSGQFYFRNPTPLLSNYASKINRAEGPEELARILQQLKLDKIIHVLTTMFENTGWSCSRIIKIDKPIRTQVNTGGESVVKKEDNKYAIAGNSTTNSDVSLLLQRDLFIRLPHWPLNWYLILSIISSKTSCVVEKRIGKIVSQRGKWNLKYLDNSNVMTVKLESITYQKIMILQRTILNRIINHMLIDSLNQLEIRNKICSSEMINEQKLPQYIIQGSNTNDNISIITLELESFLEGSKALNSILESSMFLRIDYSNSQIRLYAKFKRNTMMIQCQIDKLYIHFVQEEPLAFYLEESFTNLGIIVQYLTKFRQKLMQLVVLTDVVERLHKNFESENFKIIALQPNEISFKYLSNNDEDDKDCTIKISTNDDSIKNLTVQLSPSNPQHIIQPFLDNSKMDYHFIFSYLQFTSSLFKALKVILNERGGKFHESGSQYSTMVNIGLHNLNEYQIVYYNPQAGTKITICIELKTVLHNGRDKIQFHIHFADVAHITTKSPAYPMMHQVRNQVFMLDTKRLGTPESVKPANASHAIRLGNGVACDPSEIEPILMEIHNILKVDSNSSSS
UniProt P38782: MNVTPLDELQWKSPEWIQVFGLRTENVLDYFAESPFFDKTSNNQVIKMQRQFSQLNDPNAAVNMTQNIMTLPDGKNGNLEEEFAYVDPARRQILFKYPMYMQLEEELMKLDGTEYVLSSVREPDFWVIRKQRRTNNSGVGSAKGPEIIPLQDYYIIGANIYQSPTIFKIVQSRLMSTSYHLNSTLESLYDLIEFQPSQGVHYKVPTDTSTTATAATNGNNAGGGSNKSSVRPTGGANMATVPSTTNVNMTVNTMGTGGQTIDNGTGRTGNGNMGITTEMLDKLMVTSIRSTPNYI

With “LexA-fused Med6p-Δ5 (deletion of amino acids 125–134) (from UniProt P38782)” the binding was “binds”.

In the case of “LexA-fused Med6p-Δ6 (deletion of amino acids 157–166) (from UniProt P38782)”, the binding is reported as “binds”.

From paper PMC5818915
